Results reported in the supplement of paper PMC8728848.
This is one part of the list.

How the values were obtained:
Assay in all cases: glycan array binding signal (z-score within array); higher = stronger binding
Details in all cases: glycan notation: IUPAC condensed, linker removed
Fuc(a1-2)Gal = target: Fuc(a1-2)Gal
Procedure, shortened: (§1)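 The binding signal is a Z-score computed within each array and averaged over linkers. Arrays of the same protein sequence at different concentrations or buffers were also averaged together. Data originate from 3228 arrays in the Consortium for Functional Glycomics database, kept only where the protein sequence was available.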

Fuc(a1-2)Gal(b1-3)GalNAc = target: Fuc(a1-2)Gal(b1-3)GalNAc
Procedure, shortened: as §1

[1] = target: Fuc(a1-2)Gal(b1-3)GalNAc(a1-3)[Fuc(a1-2)]Gal(b1-4)Glc
Procedure, shortened: as §1

[2] = target: Fuc(a1-2)Gal(b1-3)GalNAc(a1-3)[Fuc(a1-2)]Gal(b1-4)GlcNAc
Procedure, shortened: as §1

[3] = target: Fuc(a1-2)Gal(b1-3)GalNAc(b1-3)Gal
Procedure, shortened: as §1

[4] = target: Fuc(a1-2)Gal(b1-3)GalNAc(b1-3)Gal(a1-4)Gal(b1-4)Glc
Procedure, shortened: as §1

[5] = target: Fuc(a1-2)Gal(b1-3)GalNAc(b1-4)[Neu5Ac(a2-3)]Gal(b1-4)Glc
Procedure, shortened: as §1

Fuc(a1-2)Gal(b1-3)GlcNAc = target: Fuc(a1-2)Gal(b1-3)GlcNAc
Procedure, shortened: as §1

[6] = target: Fuc(a1-2)Gal(b1-3)GlcNAc(b1-2)Man(a1-3)[Fuc(a1-2)Gal(b1-3)GlcNAc(b1-2)Man(a1-6)]Man(b1-4)GlcNAc(b1-4)GlcNAc
Procedure, shortened: as §1

[7] = target: Fuc(a1-2)Gal(b1-3)GlcNAc(b1-2)Man(a1-3)[Fuc(a1-2)Gal(b1-3)GlcNAc(b1-2)Man(a1-6)]Man(b1-4)GlcNAc(b1-4)[Fuc(a1-6)]GlcNAc
Procedure, shortened: as §1

[8] = target: Fuc(a1-2)Gal(b1-3)GlcNAc(b1-3)Gal(b1-4)Glc
Procedure, shortened: as §1

[9] = target: Fuc(a1-2)Gal(b1-3)GlcNAc(b1-3)GalNAc
Procedure, shortened: as §1

[10] = target: Fuc(a1-2)Gal(b1-3)GlcNAc(b1-3)[Fuc(a1-2)Gal(b1-3)GlcNAc(b1-6)]GalNAc
Procedure, shortened: as §1

[11] = target: Fuc(a1-2)Gal(b1-3)GlcNAc(b1-3)[Gal(b1-4)GlcNAc(b1-6)]Gal(b1-4)Glc
Procedure, shortened: as §1

[12] = target: Fuc(a1-2)Gal(b1-3)GlcNAc(b1-3)[Neu5Ac(a2-6)Gal(b1-4)GlcNAc(b1-6)]Gal(b1-4)Glc
Procedure, shortened: as §1

[13] = target: Fuc(a1-2)Gal(b1-3)GlcNAc6S
Procedure, shortened: as §1

[14] = target: Fuc(a1-2)Gal(b1-3)[Fuc(a1-4)]GlcNAc
Procedure, shortened: as §1

[15] = target: Fuc(a1-2)Gal(b1-3)[Fuc(a1-4)]GlcNAc(b1-2)Man(a1-3)[Fuc(a1-2)Gal(b1-3)[Fuc(a1-4)]GlcNAc(b1-2)Man(a1-3)]Man(b1-4)GlcNAc(b1-4)GlcNAc
Procedure, shortened: as §1

[16] = target: Fuc(a1-2)Gal(b1-3)[Fuc(a1-4)]GlcNAc(b1-2)Man(a1-3)[Fuc(a1-2)Gal(b1-3)[Fuc(a1-4)]GlcNAc(b1-2)Man(a1-6)]Man(b1-4)GlcNAc(b1-4)[Fuc(a1-6)]GlcNAc(b1-4)[Fuc(a1-6)]GlcNAc
Procedure, shortened: as §1

[17] = target: Fuc(a1-2)Gal(b1-3)[Fuc(a1-4)]GlcNAc(b1-3)[Fuc(a1-3)[Gal(b1-4)]GlcNAc(b1-6)]Gal(b1-4)Glc
Procedure, shortened: as §1

[18] = target: Fuc(a1-2)Gal(b1-3)[Fuc(a1-4)]GlcNAc(b1-3)[Gal(b1-4)GlcNAc(b1-6)]Gal(b1-4)Glc
Procedure, shortened: as §1

Fuc(a1-2)Gal(b1-4)Glc = target: Fuc(a1-2)Gal(b1-4)Glc
Procedure, shortened: as §1

Fuc(a1-2)Gal(b1-4)Glc6S = target: Fuc(a1-2)Gal(b1-4)Glc6S
Procedure, shortened: as §1

Fuc(a1-2)Gal(b1-4)GlcNAc = target: Fuc(a1-2)Gal(b1-4)GlcNAc
Procedure, shortened: as §1

[19] = target: Fuc(a1-2)Gal(b1-4)GlcNAc(b1-2)Man
Procedure, shortened: as §1

[20] = target: Fuc(a1-2)Gal(b1-4)GlcNAc(b1-2)Man(a1-3)[Fuc(a1-2)Gal(b1-4)GlcNAc(b1-2)Man(a1-6)]Man(b1-4)GlcNAc(b1-4)GlcNAc
Procedure, shortened: as §1

[21] = target: Fuc(a1-2)Gal(b1-4)GlcNAc(b1-2)Man(a1-3)[Fuc(a1-2)Gal(b1-4)GlcNAc(b1-2)Man(a1-6)]Man(b1-4)GlcNAc(b1-4)[Fuc(a1-6)]GlcNAc
Procedure, shortened: as §1

[22] = target: Fuc(a1-2)Gal(b1-4)GlcNAc(b1-2)[Fuc(a1-2)Gal(b1-4)GlcNAc(b1-4)]Man(a1-3)[Fuc(a1-2)Gal(b1-4)GlcNAc(b1-2)Man(a1-6)]Man(b1-4)GlcNAc(b1-4)GlcNAc
Procedure, shortened: as §1

[23] = target: Fuc(a1-2)Gal(b1-4)GlcNAc(b1-3)Gal(b1-4)GlcNAc
Procedure, shortened: as §1

[24] = target: Fuc(a1-2)Gal(b1-4)GlcNAc(b1-3)Gal(b1-4)GlcNAc(b1-2)Man(a1-3)[Fuc(a1-2)Gal(b1-4)GlcNAc(b1-3)Gal(b1-4)GlcNAc(b1-2)Man(a1-6)]Man(b1-4)GlcNAc(b1-4)GlcNAc
Procedure, shortened: as §1

[25] = target: Fuc(a1-2)Gal(b1-4)GlcNAc(b1-3)Gal(b1-4)GlcNAc(b1-3)Gal(b1-4)GlcNAc
Procedure, shortened: as §1

[26] = target: Fuc(a1-2)Gal(b1-4)GlcNAc(b1-3)GalNAc
Procedure, shortened: as §1

[27] = target: Fuc(a1-2)Gal(b1-4)GlcNAc(b1-3)[Fuc(a1-2)Gal(b1-4)GlcNAc(b1-6)]GalNAc
Procedure, shortened: as §1

[28] = target: Fuc(a1-2)Gal(b1-4)GlcNAc(b1-3)[Fuc(a1-3)[Gal(b1-4)]GlcNAc(b1-6)]Gal(b1-4)Glc
Procedure, shortened: as §1

[29] = target: Fuc(a1-2)Gal(b1-4)GlcNAc(b1-6)GalNAc
Procedure, shortened: as §1

[30] = target: Fuc(a1-2)Gal(b1-4)GlcNAc6S
Procedure, shortened: as §1

[31] = target: Fuc(a1-2)Gal(b1-4)[Fuc(a1-3)]GlcNAc
Procedure, shortened: as §1

[32] = target: Fuc(a1-2)Gal(b1-4)[Fuc(a1-3)]GlcNAc(b1-2)Man(a1-3)[Fuc(a1-2)Gal(b1-4)[Fuc(a1-3)]GlcNAc(b1-2)Man(a1-6)]Man(b1-4)GlcNAc(b1-4)[Fuc(a1-6)]GlcNAc
Procedure, shortened: as §1

[33] = target: Fuc(a1-2)Gal(b1-4)[Fuc(a1-3)]GlcNAc(b1-2)[Fuc(a1-2)Gal(b1-4)[Fuc(a1-3)]GlcNAc(b1-4)]Man(a1-3)[Fuc(a1-2)Gal(b1-4)[Fuc(a1-3)]GlcNAc(b1-2)Man(a1-6)]Man(b1-4)GlcNAc(b1-4)GlcNAc
Procedure, shortened: as §1

[34] = target: Fuc(a1-2)Gal(b1-4)[Fuc(a1-3)]GlcNAc(b1-3)Gal(b1-4)[Fuc(a1-3)]GlcNAc
Procedure, shortened: as §1

[35] = target: Fuc(a1-2)Gal(b1-4)[Fuc(a1-3)]GlcNAc(b1-3)Gal(b1-4)[Fuc(a1-3)]GlcNAc(b1-3)Gal(b1-4)[Fuc(a1-3)]GlcNAc
Procedure, shortened: as §1

[36] = target: Fuc(a1-2)Gal(b1-4)[Fuc(a1-3)]GlcNAc(b1-3)GalNAc
Procedure, shortened: as §1

[37] = target: Fuc(a1-2)Gal(b1-4)[Fuc(a1-3)]GlcNAc(b1-3)[Neu5Ac(a2-6)Gal(b1-4)GlcNAc(b1-6)]Gal(b1-4)Glc
Procedure, shortened: as §1

[38] = target: Fuc(a1-2)Gal3S(b1-4)GlcNAc
Procedure, shortened: as §1

[39] = target: Fuc(a1-2)Gal6S(b1-3)GlcNAc
Procedure, shortened: as §1

B1: CM2 (Cordyceps militaris) (protein)
chain: MEIAEQNVGKSCAIVNLIPPKEGSNIWTAKQVTIARNLPPNRGTGRHQIDWSFGPVKVTGYVDTTNWEIGVTVSIMGIDLGTVYGNLRDGVVLNVDLFLAKGQVRFYLKNGNEVWVHLSVEIRFDGKFEGDYKIITV
glycan array binding signal (z-score) (Fuc(a1-2)Gal): -0.015 | glycan array binding signal (z-score) (Fuc(a1-2)Gal(b1-3)GalNAc): 1.42 | glycan array binding signal (z-score) [1]: 0.616 | glycan array binding signal (z-score) [2]: -0.08 | glycan array binding signal (z-score) [3]: -0.451 | glycan array binding signal (z-score) [4]: -0.777 | glycan array binding signal (z-score) [5]: 0.28 | glycan array binding signal (z-score) (Fuc(a1-2)Gal(b1-3)GlcNAc): -0.535 | glycan array binding signal (z-score) [6]: -0.147 | glycan array binding signal (z-score) [7]: -0.231 | glycan array binding signal (z-score) [8]: 0.107 | glycan array binding signal (z-score) [9]: 0.327 | glycan array binding signal (z-score) [10]: 0.023 | glycan array binding signal (z-score) [11]: -1.78 | glycan array binding signal (z-score) [12]: 0.492 | glycan array binding signal (z-score) [13]: -0.285 | glycan array binding signal (z-score) [14]: -0.124 | glycan array binding signal (z-score) [15]: 0.211 | glycan array binding signal (z-score) [16]: 0.032 | glycan array binding signal (z-score) [17]: -0.546 | glycan array binding signal (z-score) [18]: 0.83 | glycan array binding signal (z-score) (Fuc(a1-2)Gal(b1-4)Glc): 0.296 | glycan array binding signal (z-score) (Fuc(a1-2)Gal(b1-4)Glc6S): -0.639 | glycan array binding signal (z-score) (Fuc(a1-2)Gal(b1-4)GlcNAc): 0.094 | glycan array binding signal (z-score) [19]: 0.18 | glycan array binding signal (z-score) [20]: -0.171 | glycan array binding signal (z-score) [21]: 1.73 | glycan array binding signal (z-score) [22]: -0.363 | glycan array binding signal (z-score) [23]: -1.01 | glycan array binding signal (z-score) [24]: 0.257 | glycan array binding signal (z-score) [25]: 0.53 | glycan array binding signal (z-score) [26]: 0.038 | glycan array binding signal (z-score) [27]: -0.153 | glycan array binding signal (z-score) [28]: 1.78 | glycan array binding signal (z-score) [29]: -0.483 | glycan array binding signal (z-score) [30]: 0.223 | glycan array binding signal (z-score) [31]: 0.733 | glycan array binding signal (z-score) [32]: 0.44 | glycan array binding signal (z-score) [33]: 0.693 | glycan array binding signal (z-score) [34]: 0.593 | glycan array binding signal (z-score) [35]: -1.09 | glycan array binding signal (z-score) [36]: 0.529 | glycan array binding signal (z-score) [37]: -1.48 | glycan array binding signal (z-score) [38]: 1.07 | glycan array binding signal (z-score) [39]: -0.43
